PubChem BioAssay AID1508588, Peter MacCallum Cancer Centre, 2020
Shown is one part, drawn at random, of about 18,000 deposited reagents. Over the whole deposit, 790 (4.4%) were called active. 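Calls rest on a combination of fold-change classes in drug and vehicle arms, not all shown here.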

Aim: 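Genome-wide search for knock-downs that heighten vemurafenib action in melanoma cells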 (primary screen)
Cell system: human WM266.4 melanoma cells (BRAF V600 mutant)
Knock-down reagent: siRNA pool against human genes, 40 nM
Timing: 96 h from transfection to read-out
Conditions: vemurafenib 300 nM (about IC25), added 48 h after transfection, for 48 h; comparison arm got DMSO vehicle only
Detection: 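Ratios to non-targeting siRNA for cell gain, counted as DAPI nuclei after minus before drug and averaged over two replicates, and for absorbance-read medium lactate per cell; both binned into fold-change classes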
Direction: cell gain with vemurafenib: higher = more cell gain than with non-targeting siRNA; lactate per cell with vemurafenib: higher = more lactate made per cell
Active means: 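Enhancement is called by pairing each knock-down's vehicle-arm and drug-arm fold-change classes for viability or glycolysis; which class combinations qualify is not given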
Meaning of the calls: active = enhances vemurafenib effect; inactive = no enhancement seen

| gene | cell gain with vemurafenib | lactate per cell with vemurafenib | Call |
| --- | --- | --- | --- |
| RNF113B | 0.56 | 1.6 | inactive |
| METTL4 | 0.89 | 0.72 | inactive |
| LYZL4 | 0.45 | 0.36 | inactive |
| SUB1 | 0.94 | 0.68 | inactive |
| FKBP6 | 0.62 | 0.27 | inactive |
| ROS1 | 0.52 | 0.73 | inactive |
| SPINK14 | 0.91 | 0.52 | inactive |
| HS3ST2 | 0.71 | 1.02 | inactive |
| ATF3 | 0.44 | 1.56 | inactive |
| TBC1D23 | 0.74 | 1.14 | inactive |
| ARFGEF2 | 0.68 | 1 | inactive |
| RPL36 | -0.05 | 1.9 | inactive |
| KPRP | 0.02 | 1.47 | inactive |
| PREB | 0.69 | 1.24 | inactive |
| DLL1 | 0.21 | 1.3 | inactive |
| TCP11 | 0.18 | 0.45 | active |
| GRIPAP1 | 0.57 | 1.21 | inactive |
| STX10 | 0.52 | 1.79 | inactive |
| SMCO1 | 0.93 | 0.55 | inactive |
| OR4K1 | 0.75 | 1.23 | inactive |
| ZFP14 | 0.53 | 1.07 | inactive |
| ANTKMT | 0.49 | 0.99 | inactive |
| MARCHF3 | 0.62 | 0.92 | inactive |
| FBXO43 | 0.79 | 0.85 | inactive |
| TOMM40 | 0.77 | 0.96 | inactive |
| SUOX | 0.35 | 1.12 | inactive |
| STYXL2 | 0.76 | 0.76 | inactive |
| TIMM8A | 0.98 | 0.4 | inactive |
| EPHA1 | 0.33 | 0.84 | inactive |
| SLC8A3 | 1.18 | 0.54 | inactive |
| STK17A | 1.03 | 0.1 | inactive |
| HCRTR1 | 0.47 | 1.14 | inactive |
| SERPINF2 | 0.62 | 1.68 | inactive |
| SEMA6D | 0.47 | 1.52 | inactive |
| AURKB | -0.09 | 4.94 | inactive |
| IRF2BP2 | 0.41 | 1.16 | inactive |
| CAPN12 | 0.34 | 0.57 | inactive |
| TP53INP2 | 0.49 | 0.87 | inactive |
| WDR93 | 0.43 | 1.71 | inactive |
| ACTR3 | -0.04 | -0.16 | inactive |
| MCF2L2 | 0.64 | 0.98 | inactive |
| BANF1 | 0.45 | 1.42 | inactive |
| NCCRP1 | 0.69 | 0.8 | inactive |
| SLC35F3 | 0.75 | 0.46 | inactive |
| SERPIND1 | 0.49 | 0.86 | inactive |
| ZNF25 | 0.58 | 0.5 | inactive |
| YTHDF2 | 0.41 | 0.44 | active |
| SMIM12 | 0.73 | 0.88 | inactive |
| QRICH1 | 0.4 | 1.56 | inactive |
| TMED1 | 0.69 | 0.59 | inactive |
| SAXO6 | 0.91 | 0.7 | inactive |
| ADAT2 | 0.85 | 1.15 | inactive |
| TIMP1 | 0.52 | 1.46 | inactive |
| VHL | 0.78 | 1.27 | inactive |
| P2RY8 | 0.64 | 1.03 | inactive |
| CHTF18 | 0.72 | 1.18 | inactive |
| YLPM1 | 1.01 | 1.03 | inactive |

5 entries from above in another layout.
gene,cell gain with vemurafenib,lactate per cell with vemurafenib,Call
STX10,0.52,1.79,inactive
SMCO1,0.93,0.55,inactive
OR4K1,0.75,1.23,inactive
ZFP14,0.53,1.07,inactive
ANTKMT,0.49,0.99,inactive
